Results from paper PMC10043290.
No constants are given. Whether binding was seen depends on the method and setting. Binding seen in cells or lysates may run through a third protein. Some results given as binding are weak or reduced against the parent protein; the word gives no strength. One block for each binder: values may come before it.

Amino acid sequences for entries named in this document (tags omitted).
UniProt O43670: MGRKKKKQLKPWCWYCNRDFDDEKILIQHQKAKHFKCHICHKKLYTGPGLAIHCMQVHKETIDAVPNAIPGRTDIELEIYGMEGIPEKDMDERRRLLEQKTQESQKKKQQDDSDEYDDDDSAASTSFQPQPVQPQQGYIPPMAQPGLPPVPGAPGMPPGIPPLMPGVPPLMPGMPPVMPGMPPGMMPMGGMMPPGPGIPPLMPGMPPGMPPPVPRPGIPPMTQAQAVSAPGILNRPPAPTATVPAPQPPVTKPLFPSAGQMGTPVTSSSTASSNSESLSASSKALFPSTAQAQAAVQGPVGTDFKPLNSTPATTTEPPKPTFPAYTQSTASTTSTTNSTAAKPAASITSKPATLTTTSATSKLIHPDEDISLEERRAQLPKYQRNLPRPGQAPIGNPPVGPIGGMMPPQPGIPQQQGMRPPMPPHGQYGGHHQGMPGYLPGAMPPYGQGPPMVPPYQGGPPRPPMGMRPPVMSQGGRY

Molecular target: ZNF207 (human (endogenous in HDFs)) (UniProt O43670)
Experiment: co-IP; nuclear extracts of HDFs, about 500 ug protein lysate in NP40 lysis buffer (50 mM Tris-HCl, 150 mM NaCl, 1 mM EDTA, 0.5% NP40); anti-ZNF207 or IgG isotype control on protein G magnetic beads, overnight at 4 °C; Western blot for ATF7IP, JUNB, ZNF207

binding: binds
B1: JUNB (protein, UniProt P17275 1-347)
chain: MCTKMEQPFYHDDSYTATGYGRAPGGLSLHDYKLLKPSLAVNLADPYRSLKAPGARGPGPEGGGGGSYFSGQGSDTGASLKLASSELERLIVPNSNGVITTTPTPPGQYFYPRGGGSGGGAGGAGGGVTEEQEGFADGFVKALDDLHKMNHVTPPNVSLGATGGPPAGPGGVYAGPEPPPVYTNLSSYSPASASSGGAGAAVGTGSSYPTTTISYLPHAPPFAGGHPAQLGLGRGASTFKEEPQTVPEARSRDATPPVSPINMEDQERIKVERKRLRNRLAATKCRKRKLERIARLEDKVKTLKAENAGLSSTAGLLREQVAQLKQKVMTHVSNGCQLLLGVKGHAF

binding: binds
B2: ATF7IP (protein, UniProt Q6VMQ6 1-1270)
chain: MDSLEEPQKKVFKARKTMRVSDRQQLEAVYKVKEELLKTDVKLLNGNHENGDLDPTSPLENMDYIKDKEEVNGIEEICFDPEGSKAEWKETPCILSVNVKNKQDDDLNCEPLSPHNITPEPVSKLPAEPVSGDPAPGDLDAGDPASGVLASGDSTSGDPTSSEPSSSDAASGDATSGDAPSGDVSPGDATSGDATADDLSSGDPTSSDPIPGEPVPVEPISGDCAADDIASSEITSVDLASGAPASTDPASDDLASGDLSSSELASDDLATGELASDELTSESTFDRTFEPKSVPVCEPVPEIDNIEPSSNKDDDFLEKNGADEKLEQIQSKDSLDEKNKADNNIDANEETLETDDTTICSDRPPENEKKVEEDIITELALGEDAISSSMEIDQGEKNEDETSADLVETINENVIEDNKSENILENTDSMETDEIIPILEKLAPSEDELTCFSKTSLLPIDETNPDLEEKMESSFGSPSKQESSESLPKEAFLVLSDEEDISGEKDESEVISQNETCSPAEVESNEKDNKPEEEEQVIHEDDERPSEKNEFSRRKRSKSEDMDNVQSKRRRYMEEEYEAEFQVKITAKGDINQKLQKVIQWLLEEKLCALQCAVFDKTLAELKTRVEKIECNKRHKTVLTELQAKIARLTKRFEAAKEDLKKRHEHPPNPPVSPGKTVNDVNSNNNMSYRNAGTVRQMLESKRNVSESAPPSFQTPVNTVSSTNLVTPPAVVSSQPKLQTPVTSGSLTATSVLPAPNTATVVATTQVPSGNPQPTISLQPLPVILHVPVAVSSQPQLLQSHPGTLVTNQPSGNVEFISVQSPPTVSGLTKNPVSLPSLPNPTKPNNVPSVPSPSIQRNPTASAAPLGTTLAVQAVPTAHSIVQATRTSLPTVGPSGLYSPSTNRGPIQMKIPISAFSTSSAAEQNSNTTPRIENQTNKTIDASVSKKAADSTSQCGKATGSDSSGVIDLTMDDEESGASQDPKKLNHTPVSTMSSSQPVSRPLQPIQPAPPLQPSGVPTSGPSQTTIHLLPTAPTTVNVTHRPVTQVTTRLPVPRAPANHQVVYTTLPAPPAQAPLRGTVMQAPAVRQVNPQNSVTVRVPQTTTYVVNNGLTLGSTGPQLTVHHRPPQVHTEPPRPVHPAPLPEAPQPQRLPPEAASTSLPQKPHLKLARVQSQNGIVLSWSVLEVDRSCATVDSYHLYAYHEEPSATVPSQWKKIGEVKALPLPMACTLTQFVSGSKYYFAVRAKDIYGRFGPFCDPQSTDVISSTQSS
